Measured values published in PubChem BioAssay AID1458 (National Center for Advancing Translational Sciences (NCATS), 2008).
Screen size: about 210,000 compounds; about 5,900 (2.8%) were called active. Roughly 5% stayed inconclusive and do not appear here. Calls follow the shape of the dose curve; as a rule, active = well fitted activation curve with a large enough effect; inconclusive = small, poorly fitted or top-dose-only effect; inactive = no such curve, though single readings can be large or run the other way. The entries are a selection whose mix differs from that of the whole data set. The source gives no active or inactive call for entries shown without one.

Assay: qHTS Assay for Enhancers of SMN2 Splice Variant Expression; also: nearly all actives have a fitted effect of over 55% in size; as to activity change, positive = activation: % of control where 0% means no effect
Conditions: HEK293 SMN2-luciferase splicing reporter, luminescence, 30-36 h; activity change, positive = activation: at 46.1 µM (top of the series) unless noted
Method in brief: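 qHTS luciferase splicing reporter: luminescence rises when SMN2 exon 7 is included in transfected HEK293 cells. Compound exposure lasted 30-36 h at 37C, with 4.5 mM final sodium butyrate as control, followed by a ONE-Glo read.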
Potency is read from the fitted curve at half-maximal effect.

SMILES	activity change, positive = activation	Potency
O=C(c1cccc(F)c1)N1CCN(C(=O)c2cc(-c3ccc(Cl)cc3Cl)on2)CC1	-38.5%	–
CCCc1cc(C(=O)Cc2ccc(C(=O)OCC)o2)c(O)cc1O	-50.3%	–
COc1ccc(/C=N/c2oc(-c3ccccc3)cc2C#N)cc1OC	inactive: -43.5%	–
CCOC(=O)c1c(C)[nH]c(C(=O)COC(=O)CNC(=O)c2ccccc2Cl)c1C	67.1%	–
Fc1cccc(Cl)c1Cn1nnc(-c2ccc3c(c2)OCO3)n1	–	active: 12.6 µM
COc1ccccc1C(=O)NCCCn1cc(Br)c(C)n1	36.5%	–
CN(C)c1ccc(/C=C(/C#N)C(=O)NCc2ccccc2)o1	–	active: 12.6 µM
COc1ccccc1N1CCN(S(=O)(=O)c2ccc(F)cc2)CC1	-52.5%	–
CC(CC(=O)N1CCN(c2ccc(C(F)(F)F)cn2)CC1)n1ccnc1 (stereo unspecified)	inactive: -33.6%	–
CCC(=O)Nc1nc(=S)ss1	-37.2%	–
COC(=O)C1=C(C)OC(N)=C(C#N)C1c1c(C)nn(C)c1C (stereo unspecified)	30.6%	–
COc1ccc(CN=C2NN=C(c3ccc(Cl)cc3)CS2)cc1	–	active: 20 µM
CN1/C(=C\C(=O)COc2ccc3c(c2)OCO3)C(C)(C)c2ccccc21	-68.4%	–
COC(=O)c1ccc(-c2nc3cc(Cl)c(N)cc3s2)cc1	–	active: 1.41 µM
COc1ccc(/C=C\C(=O)c2c(O)ccc3c(C)cc(=O)oc23)cc1OC	inactive: -46.3%	–
O=C(CCC1N=C2c3ccccc3N=C(SCc3ccc(F)cc3)N2C1=O)NCc1ccco1 (stereo unspecified)	37.2%	–
Cc1cc2nc(-c3cccnc3SCC(=O)NC3CC3)[nH]c2cc1C	–	active: 15.8 µM
COc1ccccc1N1CCN(C(=O)/C=C/c2ccco2)CC1	30.7%	–
CCN(CC)S(=O)(=O)c1ccc2oc(SCc3ccc(F)cc3)nc2c1	-82.7%	–
COC(=O)c1cnc(SCc2ccc(Cl)cc2)n1C	34.9%	–
Fc1ccc(CSc2nnc(-c3ccncc3)o2)cc1	inactive: -30.2%	–
COc1ccc2nc(Nc3ccccc3OC)sc2c1	–	active: 2.82 µM

SMILES	activity change, positive = activation	Potency
COc1ccc(S(=O)(=O)N(C)CC(=O)Nc2ccccc2C(F)(F)F)cc1OC	31.9%	–
Cc1cccc(NC(=O)c2cc(-c3ccc(C)s3)nc3ccccc23)n1	inactive: -31.4%	–
COc1cccc(-c2noc(-c3cccnc3)n2)c1	–	active: 20 µM
CCn1c(=O)c(=O)n(CC)c2cc(N3CCCCC3)c(NC(=O)c3ccc(Cl)cc3)cc21	42.9%	–
Cc1cccc(NC(=O)C2CCN(S(=O)(=O)c3c(C)noc3/C=C/c3ccco3)CC2)n1	inactive: -45%	–
CCCCN(C(=O)NC(=O)Nc1c(C)cc(C)cc1C)S(C)(=O)=O	39.5%	–
CCS(=O)(=O)N1CCC(c2nc(-c3ccc(C(F)(F)F)cc3)no2)CC1	inactive: -47.2%	–
CC1CCN(S(=O)(=O)c2ccc3c(c2)C(=NO)c2cc(S(=O)(=O)N4CCC(C)CC4)ccc2-3)CC1	inactive: -98.1%	–
COc1ccc(N(C(C)C(=O)NC2CCCCCC2)S(C)(=O)=O)cc1 (stereo unspecified)	33.6%	–
COc1cc(C(=S)N2CCN(c3ccccc3Cl)CC2)cc(O)c1O	inactive: -71.2%	–
Cc1ccc(/C=C2\SC(=S)N(CCCC(=O)Nc3ccccn3)C2=O)cc1	inactive: -62.4%	–
CCC(=O)N1CCc2cc(Br)cc(S(=O)(=O)NCCN3CCCCC3C)c21 (stereo unspecified)	36.8%	–
CC(=O)Nc1cccc2c1[n+]([O-])c(C)c(C)[n+]2[O-]	33.6%	–
COc1ccc(NC(=S)c2ccc(N(C)C)cc2)cc1	–	active: 11.2 µM
N#Cc1cccc(NC(=O)COC(=O)c2ccccc2C(=O)c2ccc(Cl)c([N+](=O)[O-])c2)c1	inactive: -115%	–
CC(C)(C)C1(O)CC(C(F)(F)F)=NN1C(=O)Cc1ccc([N+](=O)[O-])cc1 (stereo unspecified)	inactive: -47%	–
Cc1cc(N2CCN(c3ccc([N+](=O)[O-])c4cccnc34)CC2)c2ccccc2n1	inactive: -66%	–
COc1ccc(NC(=O)CSc2nc3c(c(=O)n2-c2ccc(C)cc2)SCC3)c(OC)c1	-6.82%	–
O=C(CSc1cccs1)Nc1cccc2ccccc12	–	active: 12.6 µM
O=C(Nc1ccccc1)C1CCCCC1	38.4%	–
COc1ccc(CCNc2nc(-c3cccnc3)cs2)cc1OC	inactive: -33.2%	–
CCOC(=O)c1sc(NC(=O)Nc2ccc(F)cc2)nc1C	–	active: 1.26 µM

By substructure: the compounds so far containing a cyano group (4)
SMILES	activity change, positive = activation	Potency
COc1ccc(/C=N/c2oc(-c3ccccc3)cc2C#N)cc1OC	inactive: -43.5%	–
CN(C)c1ccc(/C=C(/C#N)C(=O)NCc2ccccc2)o1	–	active: 12.6 µM
COC(=O)C1=C(C)OC(N)=C(C#N)C1c1c(C)nn(C)c1C (stereo unspecified)	30.6%	–
N#Cc1cccc(NC(=O)COC(=O)c2ccccc2C(=O)c2ccc(Cl)c([N+](=O)[O-])c2)c1	inactive: -115%	–

Next part:

SMILES	activity change, positive = activation	Potency
N#CCSc1nnc(COc2cccc3ccccc23)n1-c1ccccc1	inactive: -55.2%	–
Cc1c(C(=O)Nc2ccc3c(c2)CCC3)cccc1[N+](=O)[O-]	99.5%	–
N#Cc1ccc(CN2CCC3(CC2)CCN(C(=O)c2ccncc2)CC3)cc1	inactive: -35.9%	–
Cn1cc(Cl)c(C(=O)OCC(=O)Nc2nc(-c3ccc(Br)cc3)cs2)n1	–	active: 15.8 µM
Cc1occc1C(=O)Nc1cc(=O)n(C)c(=O)n1C	22.8%	–
COC(=O)c1ccc(CSc2nnc(Nc3ccc(C)cc3)s2)o1	34.5%	–
CCN1C(=O)c2cccc3c(NC(=O)c4ccc(OC)c(OC)c4)ccc1c23	78.5%	–
CCOC(=O)CC(=O)Nc1cc(Cl)ccc1O	37.5%	–
CC(C)OC(=O)CCNc1n[nH]c(=O)[nH]c1=O	30.8%	–
CCCCNC(=O)CSc1nccn1Cc1ccccc1	37.3%	–
Cc1cc(C)cc(OCC(=O)Nc2ccc(-c3nc4ccccc4o3)cc2)c1	–	active: 6.31 µM
CNC(=O)c1cc2ncc(C(F)(F)F)cc2s1	41.5%	–
Cc1ccc(/C=C/C(=O)N2CCCC(C)C2)cc1 (stereo unspecified)	–	active: 1.12 µM
COC(=O)Oc1ccc(/C=N/NC(=O)CSCc2ccccc2Br)cc1OC	inactive: -51.5%	–
CCc1ccc(CNc2ccc(N3CCN(C(C)=O)CC3)cc2)cc1	-83%	–
CS(=O)(=O)N1CCc2cc(C(=O)NCCc3ccccc3)ccc21	–	active: 12.6 µM
COc1ccc(N2C(=O)CC(Cc3ccccc3)C2=O)cc1 (stereo unspecified)	38.3%	–
CCOC(=O)c1c(-c2ccc(OC)cc2)csc1NC(=O)CSc1ncnc2sccc12	-49.3%	–
C(=N\Nc1nc(-c2ccccc2)cs1)/c1cccs1	–	active: 7.94 µM
COc1ccc(C2=NN(CN3C(=O)C(=O)c4ccccc43)C(c3ccc(OC)cc3)C2)cc1 (stereo unspecified)	–	active: 10 µM
CC(=O)Nc1nc(N2C(=O)c3ccccc3C2=O)n(-c2ccccc2)n1	25.8%	–
CC1CCN(C(c2ccc(N(C)C)cc2)c2nnnn2C(C)(C)C)CC1 (stereo unspecified)	56.6%	–

SMILES	activity change, positive = activation	Potency
O=C(CSc1ncn(-c2ccccc2)n1)N1CCN(c2ccccc2)CC1	31.8%	–
COc1ccc(-c2c(C)nn3c(N4CCC(C(=O)NCCN(C)C)CC4)cc(C)nc23)cc1OC	33.2%	–
O=C(CCc1ccc(S(=O)(=O)N2CCOCC2)cc1)OCc1nc2ccccc2s1	inactive: -42.2%	–
Cc1onc(-c2c(Cl)cccc2Cl)c1C(=O)Nc1ccc2c(c1)OCO2	21.6%	–
CCc1ccc(C(=O)/C=C2\Sc3ccccc3NC2=O)cc1	-33.5%	–
COc1ccc(OC)c(NC(=O)c2cc3ccccc3o2)c1	86.6%	–
CC(Sc1nc2nn(-c3ccccc3)c(=O)c-2c2n1CCCCC2)C(N)=O (stereo unspecified)	39.7%	–
COc1ccccc1NC(=O)NCC(=O)Nc1ccc(F)c(F)c1	30.4%	–
Cc1csc(NC(=O)c2cc3c(C)nn(Cc4ccccc4Cl)c3s2)n1	inactive: -46.9%	–
Cc1ccc(N/C=C(/C#N)c2ccsc2)cc1C	–	active: 12.6 µM
CCOC(=O)N1CCN(S(=O)(=O)c2ccc3c(c2)SCC(=O)N3)CC1	inactive: -40.4%	–
c1ccc(Cc2nc(-c3ccccn3)no2)cc1	–	active: 25.1 µM
O=C(c1cc([N+](=O)[O-])cc([N+](=O)[O-])c1)N1CCOCC1	31.4%	–
Cc1ccc(C(=O)Nc2nnc(C3CCCCC3)s2)o1	–	active: 11.2 µM
COc1ccccc1NC(=O)Cc1noc(CN(C)Cc2cccs2)n1	57.5%	–
Cc1ccc2c(CC(=O)Nc3c(C(=O)Nc4cccc(Cl)c4)oc4ccccc34)coc2c1C	32.9%	–
COc1ccc(C2C(=O)c3ccccc3C2=O)cc1OC	65.4%	–
C=CCNC(=O)c1ccccc1NS(=O)(=O)c1ccccc1	35.7%	–
CC(Sc1nncn1C)C(=O)Nc1nnc(-c2ccccc2)s1 (stereo unspecified)	–	active: 14.1 µM
CSc1ccccc1NC(=O)c1cc2ncc(Br)cn2n1	–	active: 3.16 µM
O=C(Nc1ccc2oc(-c3ccc4ccccc4c3)nc2c1)c1ccc2c(c1)OCCO2	inactive: -35.4%	–
O=C(CN1N=C(c2ccccc2)CCC1=O)NCc1ccccc1	-2.38%	–

SMILES	activity change, positive = activation	Potency
C=CCn1c(SCC(=O)c2cccs2)nc2sc(CC)cc2c1=O	inactive: -42.6%	–
CCC(=O)c1ccc(CCCCCC(=O)O)s1	35.6%	–
c1ccc2cc3c(NCCN4CCOCC4)ccnc3cc2c1	-73%	–
Cc1ccc(-n2nc(-c3ccc(N)cc3)cc2N)cc1	–	active: 11.2 µM
Brc1ccc(-c2ccc(CNCCSc3nnnn3-c3ccccc3)o2)cc1	inactive: -35.1%	–
CCOC(=O)N1CCC(NC(=O)c2cc(C(=O)Nc3cccc(C(F)(F)F)c3)ccc2CO)CC1	inactive: -51.5%	–
Cc1cc(NC(=O)c2cccnc2)cc(-c2nc3cc(Cl)ccc3o2)c1O	34.9%	–
CCOCCCNC(=O)c1ccc2c(c1)OCO2	–	active: 14.1 µM
Cc1cc(-c2ccc(Cl)cc2)oc(=O)c1NC(=O)c1ccccc1	inactive: -32.3%	–
Cn1c(=O)c(=O)n(C)c2cc(S(=O)(=O)N3CCN(c4ccccc4F)CC3)ccc21	-50.8%	–
CC1SC(=Nc2ccccc2)N(S(=O)(=O)c2ccccc2)C1=O (stereo unspecified)	-1.84%	–
COCCn1cnc2c1c(=O)n(CC(=O)OCC(=O)NCCCc1ccccc1)c(=O)n2Cc1ccccc1	-35%	–
[O-]/C(=C(\C(=S)Nc1ccc(SC(F)F)cc1)[n+]1ccccc1)c1ccc(Cl)cc1Cl	inactive: -77.8%	–
CCN(c1ccccc1)S(=O)(=O)c1cc(C(=O)Nc2ccc(Br)cc2)ccc1F	-59.7%	–
Cc1ccccc1C(=O)Nc1nnc(-c2ccco2)o1	68.4%	–
COCCCNC(=O)CC(NS(=O)(=O)c1ccc(Cl)cc1)c1ccco1 (stereo unspecified)	30.1%	–
CCCS(=O)(=O)N1CCCC(C(=O)NCC(OC)OC)C1 (stereo unspecified)	inactive: -37.4%	–
O=C(NC12CC3CC(CC(C3)C1)C2)c1ccc(-c2ccccc2Cl)o1	inactive: 7.98%	–
